Test results taken from the supplement of paper PMC10849652.
This is one part of the list.

Sequences of proteins named here, by UniProt entry; tags and fusion partners are left off. A change or cut given only in a name is not applied to a line headed by its entry.
UniProt Q15428: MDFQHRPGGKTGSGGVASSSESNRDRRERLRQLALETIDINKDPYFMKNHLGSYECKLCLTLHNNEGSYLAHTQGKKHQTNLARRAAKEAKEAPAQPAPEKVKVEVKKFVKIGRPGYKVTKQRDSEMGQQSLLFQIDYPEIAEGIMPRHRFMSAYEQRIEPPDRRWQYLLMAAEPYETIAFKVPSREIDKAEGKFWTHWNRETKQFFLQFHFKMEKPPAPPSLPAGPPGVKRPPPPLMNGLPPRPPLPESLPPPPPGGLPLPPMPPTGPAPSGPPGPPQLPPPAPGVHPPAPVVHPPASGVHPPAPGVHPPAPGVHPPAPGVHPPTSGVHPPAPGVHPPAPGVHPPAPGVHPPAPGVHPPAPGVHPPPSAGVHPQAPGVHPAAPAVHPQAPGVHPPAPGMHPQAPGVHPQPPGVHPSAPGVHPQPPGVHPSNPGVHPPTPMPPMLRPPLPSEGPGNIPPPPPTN
UniProt P62341, whole entry, looked up: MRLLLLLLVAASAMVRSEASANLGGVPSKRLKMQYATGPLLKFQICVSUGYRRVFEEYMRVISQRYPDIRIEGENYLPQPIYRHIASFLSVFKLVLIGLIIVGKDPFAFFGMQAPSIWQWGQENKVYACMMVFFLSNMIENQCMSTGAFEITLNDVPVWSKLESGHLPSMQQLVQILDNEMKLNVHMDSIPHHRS
UniProt Q8TBC3: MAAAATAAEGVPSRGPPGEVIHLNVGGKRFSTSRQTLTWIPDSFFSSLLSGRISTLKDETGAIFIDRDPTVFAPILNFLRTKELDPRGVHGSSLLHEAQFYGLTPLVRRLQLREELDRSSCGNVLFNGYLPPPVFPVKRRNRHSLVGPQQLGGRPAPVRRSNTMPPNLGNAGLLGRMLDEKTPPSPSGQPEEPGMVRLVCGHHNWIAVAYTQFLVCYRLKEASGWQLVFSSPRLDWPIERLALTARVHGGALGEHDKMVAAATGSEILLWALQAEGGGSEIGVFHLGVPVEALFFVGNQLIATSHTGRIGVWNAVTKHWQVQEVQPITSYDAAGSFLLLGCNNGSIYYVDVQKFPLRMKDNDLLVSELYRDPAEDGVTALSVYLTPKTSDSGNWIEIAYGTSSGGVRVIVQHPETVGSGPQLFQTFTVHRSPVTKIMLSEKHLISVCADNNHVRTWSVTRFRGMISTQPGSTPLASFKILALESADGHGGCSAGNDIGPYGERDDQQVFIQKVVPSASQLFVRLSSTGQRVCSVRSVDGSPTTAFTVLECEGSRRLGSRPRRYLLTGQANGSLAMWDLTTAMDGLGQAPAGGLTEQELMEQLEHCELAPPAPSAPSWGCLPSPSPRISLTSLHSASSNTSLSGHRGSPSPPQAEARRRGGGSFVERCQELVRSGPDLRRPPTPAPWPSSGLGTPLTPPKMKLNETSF
UniProt Q12874: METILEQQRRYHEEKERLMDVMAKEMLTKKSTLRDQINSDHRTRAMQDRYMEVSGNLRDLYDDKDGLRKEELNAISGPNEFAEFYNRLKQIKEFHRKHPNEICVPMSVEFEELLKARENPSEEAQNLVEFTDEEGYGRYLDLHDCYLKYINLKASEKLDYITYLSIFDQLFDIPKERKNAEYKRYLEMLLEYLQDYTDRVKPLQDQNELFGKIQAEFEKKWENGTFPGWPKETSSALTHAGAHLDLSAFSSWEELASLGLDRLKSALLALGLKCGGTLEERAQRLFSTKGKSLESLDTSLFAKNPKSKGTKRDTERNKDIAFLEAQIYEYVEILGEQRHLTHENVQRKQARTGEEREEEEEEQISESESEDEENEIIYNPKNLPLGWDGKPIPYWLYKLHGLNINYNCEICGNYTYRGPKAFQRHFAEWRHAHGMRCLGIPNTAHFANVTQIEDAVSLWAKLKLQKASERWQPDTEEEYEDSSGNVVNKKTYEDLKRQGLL
UniProt P23246: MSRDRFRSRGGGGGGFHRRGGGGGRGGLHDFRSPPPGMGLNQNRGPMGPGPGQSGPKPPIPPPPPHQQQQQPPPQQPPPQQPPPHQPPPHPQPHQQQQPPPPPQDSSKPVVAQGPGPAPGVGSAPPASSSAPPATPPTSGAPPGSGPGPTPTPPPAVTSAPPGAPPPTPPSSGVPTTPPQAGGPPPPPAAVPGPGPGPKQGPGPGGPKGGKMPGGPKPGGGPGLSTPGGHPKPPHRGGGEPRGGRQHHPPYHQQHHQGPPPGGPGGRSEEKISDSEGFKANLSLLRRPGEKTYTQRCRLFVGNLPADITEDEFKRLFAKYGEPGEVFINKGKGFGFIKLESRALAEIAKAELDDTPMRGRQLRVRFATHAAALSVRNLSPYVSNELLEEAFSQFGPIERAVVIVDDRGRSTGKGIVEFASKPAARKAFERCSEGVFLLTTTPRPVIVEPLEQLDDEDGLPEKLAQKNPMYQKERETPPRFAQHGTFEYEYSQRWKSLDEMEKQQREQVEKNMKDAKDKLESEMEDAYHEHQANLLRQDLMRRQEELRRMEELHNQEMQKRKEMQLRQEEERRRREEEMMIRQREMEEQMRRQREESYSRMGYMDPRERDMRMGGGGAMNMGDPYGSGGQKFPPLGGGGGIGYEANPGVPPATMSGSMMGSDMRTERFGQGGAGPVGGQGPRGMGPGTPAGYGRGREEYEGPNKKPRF
UniProt Q9Y3B4: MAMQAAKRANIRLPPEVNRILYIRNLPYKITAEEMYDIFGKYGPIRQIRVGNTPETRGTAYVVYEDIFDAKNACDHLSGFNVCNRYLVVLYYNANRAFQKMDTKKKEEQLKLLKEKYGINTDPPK
UniProt Q8NC51: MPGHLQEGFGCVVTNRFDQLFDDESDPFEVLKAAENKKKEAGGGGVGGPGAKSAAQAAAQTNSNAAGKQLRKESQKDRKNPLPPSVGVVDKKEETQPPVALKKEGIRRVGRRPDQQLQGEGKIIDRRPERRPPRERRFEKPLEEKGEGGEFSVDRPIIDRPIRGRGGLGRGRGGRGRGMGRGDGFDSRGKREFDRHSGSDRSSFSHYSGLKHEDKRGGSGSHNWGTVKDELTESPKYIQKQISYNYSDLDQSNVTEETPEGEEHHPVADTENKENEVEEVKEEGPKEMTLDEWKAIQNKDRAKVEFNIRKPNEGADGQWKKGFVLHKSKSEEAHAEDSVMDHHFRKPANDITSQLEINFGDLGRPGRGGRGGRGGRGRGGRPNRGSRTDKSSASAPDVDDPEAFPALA
UniProt Q99574: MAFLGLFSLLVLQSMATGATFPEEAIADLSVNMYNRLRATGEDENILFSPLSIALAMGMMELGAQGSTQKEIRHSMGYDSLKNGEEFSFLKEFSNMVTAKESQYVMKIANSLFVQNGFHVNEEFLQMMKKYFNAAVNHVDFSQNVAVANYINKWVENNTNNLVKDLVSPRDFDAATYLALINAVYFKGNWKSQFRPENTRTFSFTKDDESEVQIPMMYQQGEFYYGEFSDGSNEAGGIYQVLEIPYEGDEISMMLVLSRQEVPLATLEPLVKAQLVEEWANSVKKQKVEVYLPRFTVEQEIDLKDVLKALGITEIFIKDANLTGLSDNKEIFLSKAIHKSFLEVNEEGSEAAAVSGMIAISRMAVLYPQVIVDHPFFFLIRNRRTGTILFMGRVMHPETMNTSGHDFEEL
UniProt Q92599: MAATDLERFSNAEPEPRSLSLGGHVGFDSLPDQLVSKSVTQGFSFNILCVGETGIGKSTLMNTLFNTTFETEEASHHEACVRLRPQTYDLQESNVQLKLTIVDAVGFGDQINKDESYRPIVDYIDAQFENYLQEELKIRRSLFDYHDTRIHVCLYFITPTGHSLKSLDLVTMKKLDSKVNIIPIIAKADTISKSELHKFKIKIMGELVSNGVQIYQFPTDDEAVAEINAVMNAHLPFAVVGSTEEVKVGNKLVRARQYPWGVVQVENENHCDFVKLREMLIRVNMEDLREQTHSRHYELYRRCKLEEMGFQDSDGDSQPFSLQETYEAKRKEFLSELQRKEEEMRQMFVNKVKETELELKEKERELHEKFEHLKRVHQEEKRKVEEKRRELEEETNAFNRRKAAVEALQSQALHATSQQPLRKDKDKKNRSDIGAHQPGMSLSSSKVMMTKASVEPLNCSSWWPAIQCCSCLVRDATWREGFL
UniProt Q9UBV2: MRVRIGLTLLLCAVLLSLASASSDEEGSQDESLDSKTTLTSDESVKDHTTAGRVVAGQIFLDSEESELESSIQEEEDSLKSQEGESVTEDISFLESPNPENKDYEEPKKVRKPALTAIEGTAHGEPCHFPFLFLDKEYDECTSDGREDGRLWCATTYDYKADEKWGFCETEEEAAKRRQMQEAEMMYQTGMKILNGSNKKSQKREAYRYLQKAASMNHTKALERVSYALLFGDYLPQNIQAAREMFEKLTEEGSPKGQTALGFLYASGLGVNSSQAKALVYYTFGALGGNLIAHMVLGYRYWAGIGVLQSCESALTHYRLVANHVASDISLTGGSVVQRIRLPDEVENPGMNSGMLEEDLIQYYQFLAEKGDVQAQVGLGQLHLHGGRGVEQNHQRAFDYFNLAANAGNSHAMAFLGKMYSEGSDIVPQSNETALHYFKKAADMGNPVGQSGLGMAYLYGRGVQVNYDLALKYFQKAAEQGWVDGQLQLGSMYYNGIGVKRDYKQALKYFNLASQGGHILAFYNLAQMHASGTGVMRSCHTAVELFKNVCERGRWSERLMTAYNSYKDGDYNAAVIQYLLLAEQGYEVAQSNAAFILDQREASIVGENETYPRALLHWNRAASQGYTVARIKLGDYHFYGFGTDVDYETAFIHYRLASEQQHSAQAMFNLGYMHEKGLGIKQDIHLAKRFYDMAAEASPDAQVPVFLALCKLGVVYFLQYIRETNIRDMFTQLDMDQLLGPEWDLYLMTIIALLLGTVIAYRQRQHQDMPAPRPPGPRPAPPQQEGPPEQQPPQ
UniProt Q99442: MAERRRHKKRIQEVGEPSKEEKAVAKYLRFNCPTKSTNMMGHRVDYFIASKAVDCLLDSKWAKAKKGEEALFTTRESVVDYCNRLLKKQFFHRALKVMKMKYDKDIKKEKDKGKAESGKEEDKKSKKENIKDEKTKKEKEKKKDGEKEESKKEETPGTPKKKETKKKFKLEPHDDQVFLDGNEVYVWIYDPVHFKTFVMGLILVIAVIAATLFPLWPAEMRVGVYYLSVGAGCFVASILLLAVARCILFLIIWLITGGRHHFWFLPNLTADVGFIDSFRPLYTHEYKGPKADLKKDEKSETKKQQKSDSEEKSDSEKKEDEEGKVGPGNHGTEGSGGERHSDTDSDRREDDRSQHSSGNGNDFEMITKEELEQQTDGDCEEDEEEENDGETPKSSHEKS
UniProt Q9Y3L3: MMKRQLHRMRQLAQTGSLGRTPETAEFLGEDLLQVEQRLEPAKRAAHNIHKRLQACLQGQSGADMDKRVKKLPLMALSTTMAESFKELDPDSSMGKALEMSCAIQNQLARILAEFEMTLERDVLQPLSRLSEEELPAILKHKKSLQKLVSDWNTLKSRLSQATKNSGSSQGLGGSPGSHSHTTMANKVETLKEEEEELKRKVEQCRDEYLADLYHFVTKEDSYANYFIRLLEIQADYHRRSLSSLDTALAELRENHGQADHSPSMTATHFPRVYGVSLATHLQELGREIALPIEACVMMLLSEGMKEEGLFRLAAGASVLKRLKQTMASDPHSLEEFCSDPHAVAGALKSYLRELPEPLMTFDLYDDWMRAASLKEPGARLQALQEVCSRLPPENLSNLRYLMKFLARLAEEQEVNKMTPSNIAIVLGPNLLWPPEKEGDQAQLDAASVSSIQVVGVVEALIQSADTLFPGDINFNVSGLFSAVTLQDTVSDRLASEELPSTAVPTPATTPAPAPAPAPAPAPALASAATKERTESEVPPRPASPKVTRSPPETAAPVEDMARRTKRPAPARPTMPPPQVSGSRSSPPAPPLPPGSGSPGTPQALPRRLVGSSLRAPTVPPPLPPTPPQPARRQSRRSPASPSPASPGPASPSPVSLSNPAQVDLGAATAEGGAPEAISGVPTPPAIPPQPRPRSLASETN
UniProt P34897: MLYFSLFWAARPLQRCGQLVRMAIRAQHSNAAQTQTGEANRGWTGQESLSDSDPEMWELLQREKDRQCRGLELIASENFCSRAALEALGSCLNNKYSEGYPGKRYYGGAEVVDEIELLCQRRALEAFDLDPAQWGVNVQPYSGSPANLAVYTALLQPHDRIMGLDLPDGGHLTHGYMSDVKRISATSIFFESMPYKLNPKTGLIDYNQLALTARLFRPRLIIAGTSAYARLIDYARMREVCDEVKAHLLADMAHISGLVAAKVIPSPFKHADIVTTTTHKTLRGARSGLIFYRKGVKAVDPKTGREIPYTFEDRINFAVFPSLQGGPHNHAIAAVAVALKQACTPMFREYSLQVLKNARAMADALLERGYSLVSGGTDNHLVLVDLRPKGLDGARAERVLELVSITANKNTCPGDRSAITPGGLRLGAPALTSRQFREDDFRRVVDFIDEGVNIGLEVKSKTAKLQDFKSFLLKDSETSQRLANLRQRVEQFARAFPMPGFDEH

Legend:
Experiment in all cases: log2 fold change, soluble protein after heating vs DMSO (PISA); higher = thermal stabilisation; K562 cells, 10 uM, 30 min; active = over 0.2 and 3.5 SD of the protein, either way, in both replicates (recomputed)
[1] = compound: CC1=C(C=C(C=C1)NC(=O)C2=CC(=CC=C2)C(C)(C)C#N)NC3=CC4=C(C=C3)N=CN(C4=O)C
How it was run: (§1)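 K562 cells at 2×10^6 cells/mL were given 10 μM compound for 30 min. Aliquots then went through 3 min of heating across 48°C-58°C, were pooled, and were extracted in PBS with 0.5% NP-40 at 4°C, and the supernatant after 21,000xg for 90 min was quantified by TMTpro 16plex LC-MS/MS with channel sums equalised. Thermal stability relative to control samples, from duplicates, is given as log2 fold change.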

[2] = compound: CC1=C(C=C(C=C1)NC(=O)C2=CC(=CC=C2)N(C)C)NC(=O)C3=CC=C(C=C3)O
How it was run: as §1

[3] = compound: CC1=CC=C(C=C1)SC2=C3C=C(SC3=CN=C2)C(=O)N
How it was run: as §1

[4] = compound: CC1=NC(=CC=C1)C2=C(N=C(N2)C(C)(C)C)C3=CC4=NC=CN=C4C=C3
How it was run: as §1

Nexturastat A = compound: CCCCN(Cc1ccc(C(=O)NO)cc1)C(=O)Nc1ccccc1 [Nexturastat A]
How it was run: as §1

vemurafenib = compound: CCCS(=O)(=O)Nc1ccc(F)c(C(=O)c2c[nH]c3ncc(-c4ccc(Cl)cc4)cc23)c1F [vemurafenib]
How it was run: as §1

[5] = compound: CCCS(=O)(=O)Nc1ccc(F)c(C(=O)c2c[nH]c3ncc(Cl)cc23)c1F
How it was run: as §1

[6] = compound: CCCc1cc(C)[nH]c(=O)c1CNC(=O)c1cc(-c2ccnc(N3CCN(C)CC3)c2)cc2c1cnn2C(C)C
How it was run: as §1

givinostat = compound: CCN(CC)Cc1ccc2cc(COC(=O)Nc3ccc(C(=O)NO)cc3)ccc2c1 [givinostat]
How it was run: as §1

barasertib = compound: CCN(CCCOc1ccc2c(Nc3cc(CC(=O)Nc4cccc(F)c4)[nH]n3)ncnc2c1)CCOP(=O)(O)O [barasertib]
How it was run: as §1

[7] = compound: CC[C@@H]1C(=O)N(C)c2cnc(Nc3ccc(C(=O)NC4CCN(C)CC4)cc3OC)nc2N1C1CCCC1
How it was run: as §1

volasertib = compound: CC[C@@H]1C(=O)N(C)c2cnc(Nc3ccc(C(=O)N[C@H]4CC[C@H](N5CCN(CC6CC6)CC5)CC4)cc3OC)nc2N1C(C)C [volasertib]
How it was run: as §1

[8] = compound: CC[C@H](C)N1C=C(C2=C(C=C(C=C21)C3=CN=C(C=C3)N4CCNCC4)C(=O)NCC5=C(C=C(NC5=O)C)C)C
How it was run: as §1

epoxomicin = compound: CC[C@H](C)[C@@H](C(=O)N[C@@H]([C@@H](C)O)C(=O)N[C@@H](CC(C)C)C(=O)[C@]1(CO1)C)NC(=O)[C@H]([C@@H](C)CC)N(C)C(=O)C [epoxomicin]
How it was run: as §1

[9] = compound: CCn1c(C(=O)N(C2CC2)C2CC2)cc2c3c(ncn3C)c(Nc3cc(C)n(C)n3)nc21
How it was run: as §1

[10] = compound: CCn1cc(-c2ccnc3[nH]c(-c4cccc(CN(C)C)c4)cc23)c(-c2ccc(NC(=O)N(C)C)cc2)n1
How it was run: as §1

[11] = compound: CN(C)CC(=O)Nc1ccc2[nH]c(=O)c3ccccc3c2c1
How it was run: as §1

rosiglitazone = compound: CN(CCOC1=CC=C(C=C1)C[C@H]2C(=O)NC(=O)S2)C3=CC=CC=N3 (racemic) [rosiglitazone]
How it was run: as §1

[12] = compound: CN1C2=C(C3=C1C(=O)N(N=C3)CC4=CC(=CC=C4)N)SC(=C2)S(=O)C
How it was run: as §1

[13] = compound: CN1CCC(CNc2ccc3ncc(-c4cccc(OC(F)(F)F)c4)n3n2)CC1
How it was run: as §1

Measured: log2 fold change

SF3A2 (UniProt Q15428)
inactive: [1] 0.022 | [2] -0.094 | [3] -0.029 | [4] 0.014 | Nexturastat A 0.058 | vemurafenib -0.023 | [5] 0.04 | [6] -0.072 | givinostat -0.009 | barasertib 0.016 | [7] 0.099 | volasertib -0.137 | [8] 0.017 | epoxomicin -0.053 | [9] -0.147 | [10] -0.085 | [11] 0.02 | rosiglitazone 0.045 | [12] 0.006 | [13] 0.054

SELENOT (UniProt P62341)
inactive: [1] 0.026 | [2] 0.14 | [3] -0.077 | [4] -0.002 | Nexturastat A -0.001 | vemurafenib -0.082 | [5] 0.015 | [6] -0.001 | givinostat -0.02 | barasertib -0.043 | [7] 0.042 | volasertib 0.122 | [8] -0.017 | epoxomicin -0.051 | [9] 0.033 | [10] 0.002 | [11] -0.01 | rosiglitazone 0.004 | [12] -0.037 | [13] 0.101

SHKBP1 (UniProt Q8TBC3)
inactive: [1] -0.02 | [2] 0.06 | [3] -0.054 | [4] 0.059 | Nexturastat A 0.044 | vemurafenib -0.013 | [5] -0.045 | [6] -0.012 | givinostat -0.012 | barasertib 0.023 | [7] 0.019 | volasertib 0.07 | [8] -0.018 | epoxomicin 0.026 | [9] -0.049 | [10] 0.027 | [11] -0.043 | rosiglitazone 0.008 | [12] -0.055 | [13] 0.034

SEPTIN6 (UniProt Q14141)
inactive: [1] 0.037 | [2] 0.024 | [3] -0.008 | [4] 0.021 | Nexturastat A -0.052 | vemurafenib -0.017 | [5] -0.01 | [6] 0.28 | givinostat -0.074 | barasertib -0.034 | [7] 0.001 | volasertib 0.072 | [8] -0.02 | epoxomicin -0.007 | [9] 0.083 | [10] -0.017 | [11] -0.032 | rosiglitazone 0.023 | [12] -0.105 | [13] -0.057

SF3A3 (UniProt Q12874)
inactive: [1] 0.004 | [2] -0.136 | [3] 0.026 | [4] 0.008 | Nexturastat A 0.181 | vemurafenib 0.023 | [5] 0.009 | [6] -0.223 | givinostat 0.005 | barasertib 0.001 | [7] 0.01 | volasertib -0.112 | [8] 0.06 | epoxomicin 0.033 | [9] -0.07 | [10] -0.002 | [11] 0.046 | rosiglitazone 0.024 | [12] 0.071 | [13] -0.022

SFPQ (UniProt P23246)
inactive: [1] -0.017 | [2] -0.039 | [3] -0.053 | [4] -0.024 | Nexturastat A 0.151 | vemurafenib 0.044 | [5] 0.022 | [6] 0.043 | givinostat 0.061 | barasertib -0.016 | [7] 0.046 | volasertib -0.09 | [8] 0.028 | epoxomicin -0.118 | [9] -0.031 | [10] 0.094 | [11] -0.03 | rosiglitazone -0.051 | [12] 0.128 | [13] 0.068

SF3B6 (UniProt Q9Y3B4)
inactive: [1] -0.011 | [2] -0.001 | [3] -0.029 | [4] 0.019 | Nexturastat A -0.001 | vemurafenib 0.02 | [5] -0.007 | [6] 0.049 | givinostat 0.046 | barasertib 0.018 | [7] 0.1 | volasertib -0.12 | [8] 0.036 | epoxomicin -0.259 | [9] -0.027 | [10] 0.051 | [11] 0.016 | rosiglitazone 0.063 | [12] 0.036 | [13] -0.084

SERBP1 (UniProt Q8NC51)
inactive: [1] -0.003 | [2] 0.026 | [3] -0.09 | [4] -0.075 | Nexturastat A 0.111 | vemurafenib -0.065 | [5] -0.127 | [6] 0.036 | givinostat -0.037 | barasertib -0.074 | [7] 0.091 | volasertib 0.163 | [8] -0.04 | epoxomicin -0.144 | [9] 0 | [10] 0.126 | [11] -0.071 | rosiglitazone -0.088 | [12] 0.096 | [13] 0.127

SERPINI1 (UniProt Q99574)
inactive: [1] 0.07 | [2] -0.009 | [3] 0.029 | [4] 0.006 | Nexturastat A -0.173 | vemurafenib 0.021 | [5] -0.047 | [6] 0.088 | givinostat -0.061 | barasertib 0.027 | [7] 0.062 | volasertib 0.006 | [8] 0.012 | epoxomicin 0.01 | [9] -0.029 | [10] -0.109 | [11] -0.018 | rosiglitazone 0.024 | [12] 0.014 | [13] 0.113

Pulled one by one from the entries so far, two records:
SF3A2 (UniProt Q15428)
inactive: [1] 0.022 | [2] -0.094 | [3] -0.029 | [4] 0.014 | Nexturastat A 0.058 | vemurafenib -0.023 | [5] 0.04 | [6] -0.072 | givinostat -0.009 | barasertib 0.016 | [7] 0.099 | volasertib -0.137 | [8] 0.017 | epoxomicin -0.053 | [9] -0.147 | [10] -0.085 | [11] 0.02 | rosiglitazone 0.045 | [12] 0.006 | [13] 0.054

SHKBP1 (UniProt Q8TBC3)
inactive: [1] -0.02 | [2] 0.06 | [3] -0.054 | [4] 0.059 | Nexturastat A 0.044 | vemurafenib -0.013 | [5] -0.045 | [6] -0.012 | givinostat -0.012 | barasertib 0.023 | [7] 0.019 | volasertib 0.07 | [8] -0.018 | epoxomicin 0.026 | [9] -0.049 | [10] 0.027 | [11] -0.043 | rosiglitazone 0.008 | [12] -0.055 | [13] 0.034

Next results

SEPTIN8 (UniProt Q92599)
inactive: [1] 0.001 | [2] 0.003 | [3] 0.028 | [4] 0.015 | Nexturastat A -0.126 | vemurafenib 0.016 | [5] 0.007 | [6] -0.012 | givinostat -0.017 | barasertib -0.006 | [7] 0.033 | volasertib 0.025 | [8] -0.014 | epoxomicin 0.006 | [9] 0.019 | [10] 0.007 | [11] 0.001 | rosiglitazone -0.011 | [12] -0.109 | [13] 0.015

SEL1L (UniProt Q9UBV2)
inactive: [1] 0.036 | [2] -0.02 | [3] -0.016 | [4] 0.011 | Nexturastat A -0.09 | vemurafenib -0.013 | [5] 0.022 | [6] 0.023 | givinostat 0.018 | barasertib -0.012 | [7] -0.038 | volasertib -0.052 | [8] 0.038 | epoxomicin 0.006 | [9] 0 | [10] -0.023 | [11] -0.026 | rosiglitazone 0.043 | [12] 0.024 | [13] 0.024

SEC62 (UniProt Q99442)
inactive: [1] -0.024 | [2] -0.013 | [3] -0.021 | [4] 0.028 | Nexturastat A -0.021 | vemurafenib -0.021 | [5] -0.021 | [6] 0.108 | givinostat -0.057 | barasertib 0.059 | [7] -0.029 | volasertib -0.018 | [8] -0.022 | epoxomicin -0.009 | [9] 0.018 | [10] -0.046 | [11] -0.007 | rosiglitazone -0.048 | [12] -0.047 | [13] 0.095

SH3BP1 (UniProt Q9Y3L3)
inactive: [1] -0.012 | [2] 0 | [3] -0.018 | [4] 0.052 | Nexturastat A -0.026 | vemurafenib -0.034 | [5] 0.004 | [6] -0.021 | givinostat 0.011 | barasertib 0.035 | [7] -0.084 | volasertib -0.142 | [8] 0.022 | epoxomicin 0.04 | [9] -0.018 | [10] 0.018 | [11] -0.003 | rosiglitazone 0.029 | [12] 0.011 | [13] -0.06

SERPINB8 (UniProt P50452)
inactive: [1] -0.099 | [2] 0.006 | [3] -0.06 | [4] -0.028 | Nexturastat A 0.029 | vemurafenib -0.055 | [5] -0.034 | [6] 0.006 | givinostat -0.017 | barasertib 0.045 | [7] -0.047 | volasertib 0.109 | [8] -0.041 | epoxomicin 0.005 | [9] 0.026 | [10] -0.046 | [11] -0.105 | rosiglitazone -0.042 | [12] -0.015 | [13] -0.012

SF1 isoform 5 (UniProt Q15637)
inactive: [1] -0.015 | [2] -0.006 | [3] 0.022 | [4] 0 | Nexturastat A 0.005 | vemurafenib -0.01 | [5] -0.016 | [6] -0.016 | givinostat -0.01 | barasertib 0.011 | [7] 0.016 | volasertib 0.002 | [8] -0.003 | epoxomicin -0.005 | [9] -0.005 | [10] 0.029 | [11] 0.001 | rosiglitazone -0.011 | [12] -0.01 | [13] -0.025

SHMT2 (UniProt P34897)
inactive: [1] -0.013 | [2] 0 | [3] 0.006 | [4] 0.005 | Nexturastat A -0.059 | vemurafenib -0.013 | [5] -0.009 | [6] -0.033 | givinostat -0.028 | barasertib 0 | [7] 0.009 | volasertib 0.047 | [8] -0.03 | epoxomicin -0.006 | [9] 0.016 | [10] 0.01 | [11] -0.029 | rosiglitazone -0.007 | [12] -0.033 | [13] 0.047
